From US20250241994A1, “PHARMACEUTICAL FORMULATION OF GLUCAGON-LIKE PEPTIDE -1 RECEPTOR AGONIST PEPTIDE FOR SUBLINGUAL DELIVERY” (Immunwork Inc., priority 2024, published 2025)
Part of at least one peptide drawing is inferred or uncertain, most often the ends.

Columns and labels:
[1] = Estimated bioavailability of sublingual relative to subcutaneous delivery (blood glucose lowering at 24 h); format: in vivo, db/db mice; settings: two SL doses; vs SC 30 nmol/Kg (TE-8105), 50 nmol/kg (semaglutide), 100 nmol/Kg (tirzepatide)
db/db mice = test: Blood glucose level in db/db mice; format: in vivo

## CC[C@H](C)[C@H](NC(=O)[C@H](CC(C)C)NC(=O)[C@H](Cc1c[nH]c2ccccc12)NC(=O)[C@H](CCC(N)=O)NC(=O)[C@@H](NC(=O)[C@H](Cc1ccccc1)NC(=O)[C@H](C)NC(=O)[C@H](CCCCNC(=O)COCCOCCNC(=O)COCCOCCNC(=O)CC[C@H](NC(=O)CCCCCCCCCCCCCCCCCCC(=O)O)C(=O)O)NC(=O)[C@H](CCC(N)=O)NC(=O)[C@H](C)NC(=O)[C@@H](NC(=O)[C@H](CCCCN)NC(=O)[C@H](CC(=O)O)NC(=O)[C@H](CC(C)C)NC(=O)C(C)(C)NC(=O)[C@@H](NC(=O)[C@H](CO)NC(=O)[C@H](Cc1ccc(O)cc1)NC(=O)[C@H](CC(=O)O)NC(=O)[C@H](CO)NC(=O)[C@@H](NC(=O)[C@H](Cc1ccccc1)NC(=O)[C@@H](NC(=O)CNC(=O)[C@H](CCC(=O)O)NC(=O)C(C)(C)NC(=O)[C@@H](N)Cc1ccc(O)cc1)[C@@H](C)O)[C@@H](C)O)[C@@H](C)CC)[C@@H](C)CC)C(C)C)C(=O)N[C@@H](C)C(=O)NCC(=O)NCC(=O)N1CCC[C@H]1C(=O)N[C@@H](CO)C(=O)N[C@@H](CO)C(=O)NCC(=O)N[C@@H](C)C(=O)N1CCC[C@H]1C(=O)N1CCC[C@H]1C(=O)N1CCC[C@H]1C(=O)N[C@@H](CO)C(N)=O [tirzepatide]
[1]
  total sublingual dose producing a similar glucose-lowering effect at 24 hrs as the subcutaneous dose: 1,000 nmol/kg
db/db mice; after sublingual 2QD for 3 days
  time until blood glucose rose to abnormal levels after administration discontinued: 1 to 2 days
db/db mice; consecutive sublingual administrations 2QD for 3 days
  blood glucose level: lowered to normal levels
